Positions count from the first letter of the chain named. For some assays here: The comparison behind a weaker result is the experiment's own reference, which may not be listed here. Where a protein sequence is shown, tags need not be part of it. For some assays here: The exact form of at least one protein or probe is not confirmed. For some assays here: At least one verdict rests on a figure or table, not on a statement of the authors.

The record followed here is publication PMC4608764, “The Q Motif Is Involved in DNA Binding but Not ATP Binding in ChlR1 Helicase” (PLoS ONE, 2015).

Data set [1] concerns T1, ChlR1-Q23A (Homo sapiens).
T1 sequence (looked up): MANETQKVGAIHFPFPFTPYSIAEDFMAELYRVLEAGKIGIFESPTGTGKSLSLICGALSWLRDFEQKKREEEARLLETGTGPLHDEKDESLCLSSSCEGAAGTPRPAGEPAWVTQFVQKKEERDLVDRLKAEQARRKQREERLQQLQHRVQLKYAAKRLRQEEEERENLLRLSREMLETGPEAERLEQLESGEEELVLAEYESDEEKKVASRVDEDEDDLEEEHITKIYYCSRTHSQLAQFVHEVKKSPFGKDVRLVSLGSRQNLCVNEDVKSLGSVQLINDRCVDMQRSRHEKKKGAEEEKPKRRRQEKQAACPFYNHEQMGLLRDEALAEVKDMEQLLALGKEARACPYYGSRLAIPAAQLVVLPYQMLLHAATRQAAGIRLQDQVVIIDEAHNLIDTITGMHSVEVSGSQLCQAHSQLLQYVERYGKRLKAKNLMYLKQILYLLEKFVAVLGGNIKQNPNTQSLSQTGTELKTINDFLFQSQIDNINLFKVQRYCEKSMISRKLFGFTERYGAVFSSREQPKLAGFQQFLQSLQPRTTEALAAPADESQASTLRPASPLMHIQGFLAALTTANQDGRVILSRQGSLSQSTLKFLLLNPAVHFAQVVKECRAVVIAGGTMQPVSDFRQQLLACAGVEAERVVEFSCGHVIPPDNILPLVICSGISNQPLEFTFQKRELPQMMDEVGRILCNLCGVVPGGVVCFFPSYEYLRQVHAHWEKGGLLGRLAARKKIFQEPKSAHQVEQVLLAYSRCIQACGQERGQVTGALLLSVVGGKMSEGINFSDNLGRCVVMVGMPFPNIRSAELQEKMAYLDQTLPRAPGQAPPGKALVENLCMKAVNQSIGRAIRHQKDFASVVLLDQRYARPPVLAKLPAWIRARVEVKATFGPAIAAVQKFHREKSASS
Briefly: EMSA. As to conditions: 5 mM Mg2+, no ATP, abolished in the standard range, slight binding at 96 nM, EMSA: 40 mM Tris-HCl pH 7.4, 25 mM KCl, 5 mM MgCl2, 2 mM DTT, 2% glycerol, 100 ng/uL BSA, 0.5 nM DNA, room temp 30 min, recombinant protein, residues 1-906, protein details: FLAG, label: 32P (5' end). (In general: A gel shift assay detects complexes by their altered migration in electrophoresis.)

The next data set deals with T2, ChlR1-WT (Homo sapiens).
T2 sequence (looked up): T1 sequence (looked up) with A23Q
Briefly: EMSA. The note with it: AMP-PNP preincubation, no stimulation of DNA binding; EMSA: 40 mM Tris-HCl pH 7.4, 25 mM KCl, 5 mM MgCl2, 2 mM DTT, 2% glycerol, 100 ng/uL BSA, no ATP, 0.5 nM DNA, room temp 30 min; recombinant protein; residues 1-906; protein details: FLAG; label: 32P (5' end).

Consider “TTTTTTTTTTTTTTTTTTTTTTCCCAGTAAAACGACGGCCAGTGC / GCACTGGCCGTCGTTTTACGGTCGTGACTGGGAAAACCCTGGCG [Forked duplex (DC26/TSTEM25)]”, for which the binding result is reported as “binds more weakly” in data set [1] and “binds” in the data set on ChlR1-WT (Homo sapiens).
